Laboratory results published in US20220073631A1.

Biological target: extracellular domain of marmoset IL-4Rα (Gly 24-His 232) with C-terminus his-tag (marmoset)
Experiment: SPR, Biacore T200, by the methods of Example 2

- binding: binds
B1: QX005N (PD2-31) (antibody, V domains shown)
VH: EVQLVESGGGLVQPGGSLRLSCAASGIDLRTNSMSWVRQAPGKGLEWVGIIGSSGYMDYASWAKGRFTISRDNSKNTLYLQMNSLRAEDTAVYYCARHGDSSSFALWGQGTLVTVSS
VL: DIQMTQSPSSLSASVGDRVTITCRASESVYKNNRLSWYQQKPGKAPKLLIYEASKVASGVPSRFSGSGSGTDFTLTISSLQPEDFATYYCAGAYRGNIYPFGQGTKVEIK

No constants are given. Whether binding was seen depends on the method and setting. A result given as binding can be weak or reduced; the word gives no strength.
